# Results are given in words; binding and its absence hold for the method and conditions named. In cells and extracts the contact can be indirect. Binding calls can cover weak binding; strength is not graded here. Sequences can lack the tags named with a protein.
# Molecular target: rat PCYOX1L tagged with a hemagglutinin (HA) epitope (rat)
# Test: co-IP; proteins overexpressed in Asic1-/- HEK cells; lysis in 1% Triton X-100 in PBS; PCYOX1L-HA precipitated, protein G-Sepharose, 4°C; ASIC1a found by Western blot; rat IgG or beads only as negative controls
binder,measurement,value
"rat ASIC1a-GFP (natural protein, UniProt P55926-1 1-526, looked up, ASIC1a, rat, in pEGFP-N1; the methods say that rat ASIC1a was used for coexpression with PCYOX1L in HEK293 cells; The vector pEGFP-N1 would put GFP at the C-terminus; source: HEK cells, transfected, in digitonin lysate) MELKTEEEEVGGVQPVSIQAFASSSTLHGLAHIFSYERLSLKRALWALCFLGSLAVLLCVCTERVQYYFCYHHVTKLDEVAASQLTFPAVTLCNLNEFRFSQVSKNDLYHAGELLALLNNRYEIPDTQMADEKQLEILQDKANFRSFKPKPFNMREFYDRAGHDIRDMLLSCHFRGEACSAEDFKVVFTRYGKCYTFNSGQDGRPRLKTMKGGTGNGLEIMLDIQQDEYLPVWGETDETSFEAGIKVQIHSQDEPPFIDQLGFGVAPGFQTFVSCQEQRLIYLPSPWGTCNAVTMDSDFFDSYSITACRIDCETRYLVENCNCRMVHMPGDAPYCTPEQYKECADPALDFLVEKDQEYCVCEMPCNLTRYGKELSMVKIPSKASAKYLAKKFNKSEQYIGENILVLDIFFEVLNYETIEQKKAYEIAGLLGDIGGQMGLFIGASILTVLELFDYAYEVIKHRLCRRGKCQKEAKRSSADKGVALSLDDVKRHNPCESLRGHPAGMTYAANILPHHPARGTFEDFTC",binding,binds
